Paper PMC11157767 (Molecular Cancer, 2024)
Values joined by “and” are separate entries in the source; they are usually repeats but may differ in a detail not shown here. Equal values may be shown once. Further values from the same series stand in other lists.

Test system: TFG-MET allograft tumors
Assay: TFG-MET allograft preclinical trial in CD1 mice, Survival cohort (survival, BLI, body weight)
Format: in vivo, mouse
Conditions: Murine allografts
Description: All treatments started 1 week after transplantation. Radio therapy was administered for 6 days, delivering 12 Gy total. Compound treatment was continued for 84 days. […] N = 8 (vehicle arms) or n = 10 (compound-treated arms), respectively. […] First row is depicted in another intensity scale to visualize tumors in all mice. The depicted scale bar indicates the range from 5x10^5-1x10^7 photons/sec/cm^2/sr.
Survival, body weight and tumor burden data from TFG-MET allograft-bearing mice. a,Schematic illustrating the preliminary in vivo study to determine the efficacy of RT alone. b, Survival curve of mice depicted in a. […] Each line represents one mouse. The ends of lines indicate the onset of neurological symptoms and thereby the endpoints.
Bioluminescence signals of in vivo trials.

CNC(=O)c1ccc(-c2cnc3ncc(Cc4ccc5ncccc5c4)n3n2)cc1F [Capmatinib] was tested, and the “BLI signal, individual mice” value (day 7, drug alone) was 1.90E+06 and 2.60E+07 and 2.40E+06 and 2.70E+06 and 1.40E+06 and 1.70E+07, the “BLI signal, individual mice” value (day 10, drug alone) was 7.60E+05 and 3.90E+07 and 3.50E+06 and 6.30E+06 and 4.00E+06 and 5.30E+07 and the “BLI signal, individual mice” value (day 14, drug alone) was 3.80E+05 and 1.40E+08 and 1.70E+07 and 7.70E+06 and 8.00E+07. The “BLI signal, individual mice” value (day 21, drug alone) was 1.30E+05 and 2.40E+08 and 1.10E+08 and 2.50E+08 and 1.80E+08 and 1.20E+08, the “BLI signal, individual mice” value (day 28, drug alone) was 1.50E+05 and 4.40E+08 and the “BLI signal, individual mice” value (day 35, drug alone) was 1.50E+05. For the same compound, the “BLI signal, individual mice” value (day 42, drug alone) was 1.40E+05, the “BLI signal, individual mice” value (day 49, drug + RT) was 1.10E+08 and the “BLI signal, individual mice” value (day 49, drug alone) was 1.30E+05. For the same compound, the “BLI signal, individual mice” value (day 56, drug alone) was 1.20E+05, the “BLI signal, individual mice” value (day 63, drug alone) was 1.20E+05 and the “BLI signal, individual mice” value (day 70, drug alone) was 1.30E+05. The “BLI signal, individual mice” value (day 77, drug alone) was 1.23E+05, the “BLI signal, individual mice” value (day 84, drug alone) was 1.03E+05 and the “BLI signal, individual mice” value (day 91, drug alone) was 1.21E+05.
